Experimental data from the supplement of paper PMC12889115.
The list shows a part of the results. These are raw signals, not scaled to a control.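 First-pass screen: polymyxin B was added at a level that permeabilizes the Salmonella outer membrane while sparing the inner membrane. DMSO wells, with and without polymyxin B, defined maximum growth. Because plates differed from one another, each plate's data were ranked separately and the compounds with the lowest OD600 were carried forward as hits.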

System: Salmonella enterica serovar Typhimurium SL1344
Test: bacterial growth OD600 after 18 h with compound and polymyxin B; higher = more bacterial growth (less inhibition)
Conditions: 50 µM, Mueller-Hinton broth

SMILES	bacterial growth OD600 (polymyxin B 1 µg/mL)	bacterial growth OD600 (polymyxin B 0.75 µg/mL)
CCOc1ccc(CN2CCN(Cc3cccc(-n4cccn4)c3)CC2CCO)cc1 (centres undefined)	1.16	–
O=C(c1ccccn1)N(C1CC1)C(Cc1ccccc1)C1CCN(Cc2cc(Cl)ccc2O)CC1 (centres undefined)	–	0.016
COc1cccc(NC(=O)CCC2CCN(C(=O)C(OC)c3ccccc3)CC2)c1 (centres undefined)	0.876	–
O=C(CN1CCCCC1)N(CC1CCN(C2Cc3ccccc3C2)CC1)CC1CCCO1 (centres undefined)	1.27	–
COc1ccc(F)c(CN2CCC(Oc3ccc(C(=O)N4CCCC4)cc3)CC2)c1	1.22	–
O=C(c1[nH]nc2c1CCCC2)N1CCC(n2c(CC3CCCC3)nc3cccnc32)CC1	–	0.823
COc1cccc(N2CCN(C(=O)CCC3(Cc4ccc(Cl)cc4)CCC(=O)N3)CC2)c1 (centres undefined)	–	0.839
COc1ccc(F)c(CC2(CCC(=O)N3CCCC3c3ccc(F)cc3)CCC(=O)N2)c1 (centres undefined)	–	0.889
O=C(C1CCCC1)N1CCC(C2(c3ccccn3)NC(=O)N(CCc3cccs3)C2=O)CC1 (centres undefined)	–	0.811
Cc1ccc(Oc2ncccc2CNC(=O)NC2CCCCC2)cn1	1.09	–
CC(c1ccon1)N(C)c1ccc(-c2nc(-c3ccccc3F)no2)cn1 (centres undefined)	0.795	–
COCCN1C(=O)CC(CC(=O)NCc2ncccc2C)(c2ccccc2OC)C1=O (centres undefined)	–	0.787
COC(=O)c1c(S(=O)(=O)Nc2ccc3c(c2)CCC3)sc2c1CCN(C(=O)CC1CC1)C2	–	0.004
CC(=O)c1ccc(N2CCN(C(=O)CC3(c4ccccc4Cl)CC(=O)N(C)C3=O)CC2)cc1 (centres undefined)	–	0.872
COc1ccc(NC(=O)NC2CC(=O)N(Cc3cccc(F)c3)C2)cc1 (centres undefined)	0.92	–
CN(Cc1ccno1)CC1(O)CCCN(Cc2ccc(F)c(F)c2)C1=O (centres undefined)	0.926	–
CCCN1CCN(C(=O)c2ccc(OC3CCN(S(=O)(=O)N(C)C)CC3)cc2)CC1	0.998	–
COc1ccc(CCN2CC(NC(=O)c3cccc(C)c3)CC2=O)cc1 (centres undefined)	0.425	–
COCCCN1C(=O)CC(CC(=O)N2CCC(OCc3ccccc3)CC2)(c2ccccc2)C1=O (centres undefined)	–	0.611
Cc1cnc(SCCN2CCOCC2)nc1C1CCCN(C(=O)/C=C/c2cccnc2)C1 (centres undefined)	–	0.828
O=C(CCCN1CCCCC1=O)NC1CCCN(CC2CCCCC2)C1 (centres undefined)	–	0.841
COc1cccc(CNCc2c(C(=O)N3CCCCCC3)nc3cc(C)ccn23)c1	0.008	–
COc1ccc2cc(-c3n[nH]cc3CN3CCC(N4CCSCC4)CC3)ccc2c1	0.72	–
COc1ccc(F)c(CC2(CCC(=O)NC(Cc3ccccc3)c3ccccc3)CCC(=O)N2)c1 (centres undefined)	–	0.815
Cc1cccc(CN2CCCC(O)(CNCc3ccccc3)C2=O)c1 (centres undefined)	0.865	–
COC(=O)c1ccc(CNC(=O)C2CCC(=O)N(Cc3ccccc3OC)C2)cc1 (centres undefined)	0.89	–
O=C(CCC1CCCN(Cc2ccc(OCc3ccccc3)cc2)C1)N1CCOCC1 (centres undefined)	0.775	–
O=C(/C=C/c1cccs1)N1CCC2(CCCN(CC3CCCCC3)C2)C1 (centres undefined)	0.868	–
OC(Cc1ccccc1)c1ccc2c(c1)CN(Cc1cccn1-c1ncccn1)CCO2 (centres undefined)	–	0.747

Ordered by SMILES length (low to high): 3 of the compounds above.
SMILES	bacterial growth OD600 (polymyxin B 1 µg/mL)	bacterial growth OD600 (polymyxin B 0.75 µg/mL)
Cc1ccc(Oc2ncccc2CNC(=O)NC2CCCCC2)cn1	1.09	–
COc1ccc(F)c(CN2CCC(Oc3ccc(C(=O)N4CCCC4)cc3)CC2)c1	1.22	–
CCCN1CCN(C(=O)c2ccc(OC3CCN(S(=O)(=O)N(C)C)CC3)cc2)CC1	0.998	–
